Assay results: PubChem BioAssay AID1671190 (National Center for Advancing Translational Sciences (NCATS), 2021)
The whole screen tested about 580,000 compounds, of which about 6,100 (1.1%) were called active. The shares of active, inactive and inconclusive entries below differ from those in the screen. The call rests on the fitted dose curve; in most records, active means well fitted inhibition curve with a large enough effect; inconclusive means small, poorly fitted or top-dose-only effect, or another doubt; inactive means no such curve, though single readings can be large or run the other way. Potencies of inconclusive entries are doubtful fits and often do not repeat.

By UniProt entry, the sequences of proteins in these tests, tags left out. Where a name states a change or a piece, a line headed by the entry shows the natural chain unless it says otherwise.
UniProt P18054: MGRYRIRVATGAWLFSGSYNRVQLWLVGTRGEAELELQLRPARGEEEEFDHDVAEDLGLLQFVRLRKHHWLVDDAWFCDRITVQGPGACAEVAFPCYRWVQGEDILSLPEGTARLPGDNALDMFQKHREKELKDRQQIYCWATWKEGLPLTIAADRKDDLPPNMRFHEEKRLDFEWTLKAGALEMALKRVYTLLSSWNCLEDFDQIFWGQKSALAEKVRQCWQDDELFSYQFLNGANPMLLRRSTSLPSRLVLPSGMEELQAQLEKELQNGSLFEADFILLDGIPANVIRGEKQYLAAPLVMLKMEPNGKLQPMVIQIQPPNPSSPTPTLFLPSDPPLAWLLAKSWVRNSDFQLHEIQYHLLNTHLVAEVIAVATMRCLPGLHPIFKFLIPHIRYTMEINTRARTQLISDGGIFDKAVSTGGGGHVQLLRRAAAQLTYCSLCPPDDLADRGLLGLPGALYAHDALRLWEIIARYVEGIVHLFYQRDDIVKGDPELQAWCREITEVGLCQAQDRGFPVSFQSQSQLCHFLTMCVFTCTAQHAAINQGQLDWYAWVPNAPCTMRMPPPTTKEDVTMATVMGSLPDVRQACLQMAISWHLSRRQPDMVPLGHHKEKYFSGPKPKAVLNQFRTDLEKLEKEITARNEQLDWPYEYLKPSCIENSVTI

These compounds were tested against Polyunsaturated fatty acid lipoxygenase ALOX12 (Homo sapiens) (UniProt P18054) (assay: Primary qHTS assay for inhibitors of human arachidonate 12S-lipoxygenase (ALOX12): Round 2). Conditions: purified 12hLO, xylenol orange hydroperoxide absorbance; activity change, negative = inhibition: at 108 µM (top of the series) unless noted.
How it was run: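 Hydroperoxide product was detected by ferrous iron/xylenol orange as the 573 to 405 nm absorbance ratio. Arachidonic acid at 40 uM (final) was turned over for 30 min at room temperature by 150 nM human 12hLO, pH 7.0 Hepes buffer, after 15 min compound preincubation.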
On the % scale 0 is the no-effect control and ±100 the full control effect; potency means the concentration at half of the fitted maximal effect.

Row | SMILES | Potency | activity change, negative = inhibition
1 | Cc1cccc(Nc2nnc(SCC(=O)NC(=O)Nc3ccc4c(c3)OCCO4)s2)c1 | inconclusive: 4.47 µM [inhibitor, full curve, poor fit] | 
2 | Cc1cccc(NCc2ccccc2O)c1C | inconclusive: 44.7 µM [inhibitor, partial curve, poor fit] | 
3 | O=C(COc1ncnc2ccc(Br)cc12)Nc1ccc(N2CCOCC2)cc1 |  | inactive: -15.2%
4 | O=C(NC1CCCCC1)O[C@@H]1CO[C@H]2[C@@H]1OC[C@@H]2Nc1nccc(-c2cccs2)n1 | inconclusive: 35.5 µM [inhibitor, partial curve] | 
5 | O=C(NC(=S)Nc1ccc2c(c1)OCCO2)c1cccc(Br)c1 | active: 28.2 µM | 
6 | C(=C\c1ccco1)/c1ccc2ccccc2n1 | active: 39.8 µM | 
7 | O=C(NCC(=O)N1CCSCC1)C1CCCN(S(=O)(=O)c2ccc(Cl)cc2)C1 (configuration not stated) |  | inactive: 1.03%
8 | O=C(CCc1ncc(-c2ccccc2F)o1)N1CCN(S(=O)(=O)c2cc(F)ccc2F)CC1 | inconclusive: 141 µM [inhibitor, partial curve, poor fit] | 
9 | Cc1cccc(C)c1-n1nnnc1C(C)(C)Nc1ccccc1 |  | inactive: -17.3%
10 | O=[N+]([O-])c1cc(Br)c(O)c(C=Nc2ccc(N3CCOCC3)cc2)c1 | inconclusive: 56.2 µM [inhibitor, partial curve, poor fit] | 
11 | CCOC1=CC(=O)N(CCC(=O)NCc2ccc(C)cc2)C1 | inconclusive: 39.8 µM [inhibitor, partial curve, poor fit] | 
12 | C=CCN(C(=O)CCC(=O)Nc1cc(C)on1)C(C(=O)NC1CCCC1)c1ccc(CC)cc1 (configuration not stated) | inconclusive: 25.1 µM [inhibitor, single point] | 
13 | Cc1ccc(C(=O)NCCn2ccn3nc(-c4ccc(F)cc4)cc3c2=O)cc1F |  | inactive: 22.7%
14 | O=C(CCc1ncc(-c2ccc(Cl)cc2)o1)Nc1ccc(F)cc1F |  | inactive: -8.9%
15 | CN(C)CCNc1c(N)c(=O)oc2ccccc12 | inconclusive: 0.251 µM [inhibitor, full curve, poor fit] | 
16 | CC1CCN(C(=O)C2CCCN(c3ncnc4c3nc3n4CCCCC3)C2)CC1 (configuration not stated) |  | inactive: 2.22%
17 | CCOC(=O)CN(C(=O)COc1nc(C)cc(C)c1C#N)c1ccc(F)cc1 | inconclusive: 158 µM [inhibitor, single point] | 
18 | CCN(CC)C(=O)c1ccc2c(c1)N(Cc1c(F)cccc1Cl)C(=O)c1ccccc1S2 | inconclusive: 44.7 µM [inhibitor, partial curve, poor fit] | 
19 | O=C(CSc1nnc2ccc(-c3ccco3)nn12)NC1CCCCC1 | inconclusive: 50.1 µM [inhibitor, partial curve, poor fit] | 
20 | Cc1ccc(NC(=O)c2cc(C3CC3)nc3ccccc23)c(C)c1 | inconclusive: 39.8 µM [inhibitor, partial curve, poor fit] | 
21 | CN1C(=O)c2ccccc2NC(=O)[C@]12O[C@@H]2c1cccc(O)c1 | inconclusive: 28.2 µM [inhibitor, single point] | 
22 | O=S(=O)(c1cccc(C(F)(F)F)c1)N(CCCN1CCOCC1)Cc1cccs1 | inconclusive: 0.794 µM [inhibitor, full curve, poor fit] | 
23 | Cc1cnc(C(=O)NCC2CCCCC(=O)N2)cn1 (configuration not stated) |  | inactive: 13.9%

Row | SMILES | Potency | activity change, negative = inhibition
24 | CC(C)NC(=O)N1CCC2(CC1)CN(C(=O)CCCN)Cc1ccccc1O2 | inconclusive: 35.5 µM [inhibitor, partial curve, poor fit] | 
25 | CC(C)Sc1nc2c(c(=O)[nH]c(=O)n2C)n1CC(O)COc1cccc2ccccc12 (configuration not stated) | inconclusive: 44.7 µM [inhibitor, partial curve] | 
26 | CCCc1cc(=O)oc2cc(OCC(=O)O)c(Cl)cc12 | inconclusive: 89.1 µM [inhibitor, partial curve, poor fit] | 
27 | COc1cc(OC)c(S(=O)(=O)Nc2ccccc2N2CCCCC2)cc1NC(C)=O |  | inactive: 0%
28 | CC(Oc1ccccc1Cl)C(=O)c1c[nH]c2ccccc12 (configuration not stated) | inconclusive: 10 µM [inhibitor, full curve, poor fit] | 
29 | COc1cccc(C(=O)c2ccccc2C(=O)O)c1 | inconclusive: 50.1 µM [inhibitor, partial curve, poor fit] | 
30 | CCNC(=O)NC(=O)C(C)N(C)Cc1cccs1 (configuration not stated) | inconclusive: 10 µM [inhibitor, full curve, poor fit] | 
31 | COc1ccc(C(=O)Oc2cccc(C)c2C)cc1 |  | inactive: -29.1%
32 | Cc1ccn2c(Nc3c(C)cccc3C)c(-c3ccsc3)nc2c1 | inconclusive: 44.7 µM [inhibitor, partial curve] | 
33 | O=C(NCc1cccnc1)c1cnc2c(c1)N([S+](=O)([O-])c1cccnc1)CCC2 | inconclusive: 35.5 µM [inhibitor, full curve] | 
34 | CCOC(=O)c1[nH]c2ccc(OC)cc2c1NC(=O)CCN1CCc2ccccc2C1 | inconclusive: 10 µM [inhibitor, partial curve, poor fit] | 
35 | Cc1sc(NC(=O)C2CCC2)c(C#N)c1C | inconclusive: 0.794 µM [inhibitor, full curve] | 
36 | O=C(C1CCC1)N1CCC(N2CC(OCC3CC3)C23CCOCC3)CC1 (configuration not stated) |  | inactive: 15.7%
37 | CCN(CC(=O)NCc1ccc(Cl)cc1)C(=O)CCC(=O)c1ccc(F)cc1 | inconclusive: 4.47 µM [inhibitor, full curve, poor fit] | 
38 | CCCS(=O)(=O)NCCc1cc2cc(C)c(C)cc2[nH]c1=O | inconclusive: 126 µM [inhibitor, partial curve, poor fit] | 
39 | COc1ccc(NC(=O)CSC2CCCCC2)cc1 |  | inactive: -6.18%
40 | CC1(c2nnc(-c3ccccc3)o2)CC(c2cccc(Cl)c2)=NO1 (configuration not stated) | inconclusive: 31.6 µM [inhibitor, partial curve, poor fit] | 
41 | CCc1ccc(-c2cc(C(F)(F)F)on2)cc1S(=O)(=O)NCc1ccccc1 |  | inactive: -15.7%
42 | Cc1ccc(F)cc1NCC(=O)Nc1ccc(Br)cc1 |  | inactive: -29.8%
43 | O=C(OCc1cc(=O)n2ccsc2n1)c1ccccc1O | inconclusive: 50.1 µM [inhibitor, partial curve, poor fit] | 
44 | COc1cccc(/C=C/C(=O)NCc2ccc(S(N)(=O)=O)cc2)c1 |  | inactive: 1.69%
45 | COC(=O)C1=C(C)Nc2nnnn2C1c1ccc(Cl)cc1Cl (configuration not stated) | inconclusive: 44.7 µM [inhibitor, partial curve, poor fit] | 
46 | CCOc1c(/C=C(\C#N)C(N)=O)c2ccccc2n1CC |  | inactive: -12.3%

Row | SMILES | Potency | activity change, negative = inhibition
47 | CCOC(=O)C1=C(C)NC(=O)NC1c1ccc(N(C)C)cc1 (configuration not stated) | inconclusive: 6.31 µM [inhibitor, full curve, poor fit] | 
48 | CC(C)CCn1c(N)c(S(=O)(=O)c2cccs2)c2nc3ccccc3nc21 | inconclusive: 44.7 µM [inhibitor, partial curve, poor fit] | 
49 | Cc1ccc(CNS(=O)(=O)c2ccc(F)c(F)c2)n1C | inconclusive: 50.1 µM [inhibitor, partial curve, poor fit] | 
50 | CC(NS(=O)(=O)c1cc2c3c(c1)CCN3C(=O)CC2)c1ccccc1 (configuration not stated) | inconclusive: 100 µM [inhibitor, single point] | 
51 | COc1ccc(NC(=O)C2CCN(S(=O)(=O)c3c(C)noc3/C=C/c3ccco3)CC2)cc1 | inconclusive: 56.2 µM [inhibitor, partial curve, poor fit] | 
52 | O=C1C(Cl)=C(NC(=O)c2ccccc2)C(=O)C(Cl)=C1NC(=O)c1ccccc1 | inconclusive: 0.631 µM [inhibitor, full curve, poor fit] | 
53 | CC(C)(C)c1ccccc1OCC(=O)Nc1cccc(C#N)c1 | inconclusive: 44.7 µM [inhibitor, partial curve, poor fit] | 
54 | COc1ccc(C=O)cc1CN1C(=O)c2ccccc2C1=O | inconclusive: 0.501 µM [inhibitor, full curve, poor fit] | 
55 | CCCCNC(=O)C1C(c2ccccc2)=Nc2ccccc2N1C(=O)c1ccc(C)cc1 (configuration not stated) | inconclusive: 28.2 µM [inhibitor, partial curve, poor fit] | 
56 | C#CCOc1c(Cl)cc(/C=C2/C(=O)ON=C2C)cc1OCC | active: 44.7 µM | 
57 | O=C(NC[C@H]1O[C@H](Cc2cc(COc3ccccc3)on2)CC[C@@H]1O)Nc1ccc(F)cc1 |  | inactive: -18.2%
58 | O=C(NC(=S)Nc1cccnc1Cl)c1ccco1 | inconclusive: 44.7 µM [inhibitor, partial curve, poor fit] | 
59 | Cc1ccnc(N2CCC(C(=O)Nc3cccc(C(F)(F)F)c3)CC2)n1 | inconclusive: 50.1 µM [inhibitor, partial curve, poor fit] | 
60 | CS(=O)(=O)Cc1ccc(C(=O)Nc2ccc(F)cc2F)cc1 |  | inactive: -9.39%
61 | Cc1ccc(C(=O)N(Cc2nc3ccccc3c(=O)[nH]2)C2CCCC2)cc1 |  | inactive: -30.3%
62 | O=C(Nc1cccc(F)c1)Nc1ccc2c(c1)OCO2 | inconclusive: 5.01 µM [inhibitor, single point] | 
63 | NC(=O)NC(Cc1ccccc1)C(=O)Nc1ccc(S(N)(=O)=O)cc1 (configuration not stated) |  | inactive: 22.4%
64 | CCn1c(N2CCC(C(=O)Nc3ccc(C(C)C)cc3)CC2)cc(=O)n(C)c1=O | inconclusive: 126 µM [inhibitor, partial curve, poor fit] | 
65 | COc1cccc(NC(=O)Cn2c(=O)n(-c3cccc(OC)c3)c(=O)c3c4c(sc32)CCCC4)c1 | inconclusive: 158 µM [inhibitor, partial curve, poor fit] | 
66 | Cc1cc(NC(=O)C(C)SCC(=O)Nc2ccccc2N2CCCCC2)no1 (configuration not stated) | inconclusive: 3.55 µM [inhibitor, full curve, poor fit] | 
67 | FC(F)(F)c1cc(Cl)c2nnc(SCc3cccc(Br)c3)n2c1 |  | inactive: 24.9%

Individual results from the entries so far.
Value of `FC(F)(F)c1cc(Cl)c2nnc(SCc3cccc(Br)c3)n2c1` under activity change, negative = inhibition: inactive: 24.9%
Value of `COc1ccc(NC(=O)C2CCN(S(=O)(=O)c3c(C)noc3/C=C/c3ccco3)CC2)cc1` under Potency: inconclusive: 56.2 µM [inhibitor, partial curve, poor fit]
